In publication PMC7819943, “Rice protein-binding microarrays: a tool to detect cis-acting elements near promoter regions in rice”:
Some of the results follow.

Chains of the proteins cited; added tags and fusions are not shown.
UniProt Q0JBA9, entry or part of it: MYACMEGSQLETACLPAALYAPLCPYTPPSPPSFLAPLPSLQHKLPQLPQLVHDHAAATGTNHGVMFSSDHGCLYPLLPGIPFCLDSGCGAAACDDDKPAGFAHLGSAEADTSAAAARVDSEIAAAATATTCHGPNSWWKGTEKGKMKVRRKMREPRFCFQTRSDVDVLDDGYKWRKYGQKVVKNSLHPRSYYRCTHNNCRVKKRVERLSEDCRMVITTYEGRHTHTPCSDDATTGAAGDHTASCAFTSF

target: OsWRKY34 (Oryza sativa, UniProt Q0JBA9 1-250); experiment: protein-binding microarray (RPBM); PBS, 2% BSA, 51.3 ng/ul salmon testes DNA, 50 uM zinc acetate, 200 nM TF, 25 C, 1 h; high values mean tight binding; details: protein: recombinant; tags: N-terminal polyhistidine and DsRed monomer fusion (pET32a); label: CyDye5-dUTP incorporated in the synthesized complementary strand; 3' TTTTT single-stranded linker to array surface; dsDNA, one strand shown
How it was run: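 Binding signal here means per-feature fluorescence intensity in arbitrary units. The values were read on an Axon 4000B scanner after a custom Agilent array, double-stranded by primer extension with Cy5-dUTP, was incubated with 200 nM protein at 25 °C for 1 h in PBS with 2% BSA, salmon testes DNA and 50 µM zinc acetate, then washed. The proteins were transcription factors with an N-terminal polyhistidine tag and DsRed, expressed in E. coli BL21-CodonPlus and purified on Ni–NTA.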

Row | Sequence | binding signal
1 | GCACGCTCCGCAGCTCCGCCGCGCTCACGTACCCGTCCCCCGGAGTCACCTAGTGCAG | 8590 fluorescence intensity (a.u.)
2 | TTTTTGACTTTGACTTTTAATAGTAAAAAAATCAATTATGCGGAGTCACCTAGTGCAG | 9900 fluorescence intensity (a.u.)
3 | TACTAATCTCTCCCTGTAAAGCTCAGTTCCTGCATTAAATCGGAGTCACCTAGTGCAG | 9330 fluorescence intensity (a.u.)
4 | TGTACAGTTGGTTCTTTTCTTTTTTTTTTTCAGTTGAGTCCGGAGTCACCTAGTGCAG | 9330 fluorescence intensity (a.u.)
5 | GCCCACCATTAGGGCGGCAGGGGCTATTTCTACAATTTTTCGGAGTCACCTAGTGCAG | 8350 fluorescence intensity (a.u.)
6 | ATGGGAACCCAGCTTTCGATTGAAATTTAGAATATTTTTCCGGAGTCACCTAGTGCAG | 8530 fluorescence intensity (a.u.)
7 | GTTGCTGTTTTTGATGGTCGTTGAGACAGATAGTTTGGTACGGAGTCACCTAGTGCAG | 8360 fluorescence intensity (a.u.)
8 | CTTCCATTTCCACGTGCTCATTCACGCCCGCATCATAAACCGGAGTCACCTAGTGCAG | 14200 fluorescence intensity (a.u.)
9 | CTCTGCTCCTTCGTCCTCGGCCCCGGCGACGCCGCCTCCGCGGAGTCACCTAGTGCAG | 10500 fluorescence intensity (a.u.)
10 | GTGTACTCCCTTCGTTTCATATATTATAAATTGCTTTGACCGGAGTCACCTAGTGCAG | 10600 fluorescence intensity (a.u.)
11 | CCCCGCTGCTTCTTCCGCCGCATCCTTCGCTCGCTCGCTGCGGAGTCACCTAGTGCAG | 11700 fluorescence intensity (a.u.)
12 | AATTTTTTCGTCACATCGTTCTAATTTTAACCAAAATTATCGGAGTCACCTAGTGCAG | 9290 fluorescence intensity (a.u.)
13 | CGACAGGTCAAAACCGACATAGCAGCTATTCCTTCCATCTCGGAGTCACCTAGTGCAG | 9310 fluorescence intensity (a.u.)
14 | CACATCTCTCTCTTTCTCTCTCTCTCTCTCTCTTCATCTACGGAGTCACCTAGTGCAG | 10700 fluorescence intensity (a.u.)
15 | ATCACCACTTCGTCCAGGGCCTACGCACCAAATCACAATCCGGAGTCACCTAGTGCAG | 10400 fluorescence intensity (a.u.)
16 | GTTCAGCCTCTCATCATATACTTCCACCACATTTTATAGGCGGAGTCACCTAGTGCAG | 8050 fluorescence intensity (a.u.)
17 | TAAGGTTTATTTTGGTTATAATCTGAACAACCCCTATATCCGGAGTCACCTAGTGCAG | 12600 fluorescence intensity (a.u.)
18 | TGCCGCACCGGTCCAACCAATCTGCTACACGGCCGGTCTACGGAGTCACCTAGTGCAG | 12300 fluorescence intensity (a.u.)
19 | TCTGTCTCTCAGTCATAAAATTGTACTGGTATTTGATAATCGGAGTCACCTAGTGCAG | 9350 fluorescence intensity (a.u.)
20 | TTTCTTTTCATATATTTTTGTTTATTTTCTCTCATTTCTCCGGAGTCACCTAGTGCAG | 11300 fluorescence intensity (a.u.)
21 | CAAATTTGGTATTTCTCTCTGCTCACTCCATCCCTCAACTCGGAGTCACCTAGTGCAG | 8830 fluorescence intensity (a.u.)

Reformatted as tab-separated lines: entries from further up
Row	Sequence	binding signal
14	CACATCTCTCTCTTTCTCTCTCTCTCTCTCTCTTCATCTACGGAGTCACCTAGTGCAG	10700 fluorescence intensity (a.u.)
17	TAAGGTTTATTTTGGTTATAATCTGAACAACCCCTATATCCGGAGTCACCTAGTGCAG	12600 fluorescence intensity (a.u.)

Later entries.

Row | Sequence | binding signal
22 | ATGTAGTCCCATCTCCTTAATCATCTCAATCCCTTTATAACGGAGTCACCTAGTGCAG | 8720 fluorescence intensity (a.u.)
23 | AATCTTTTCTCTCTTTTTTTGGTATTTCGAGAGGAGAAACCGGAGTCACCTAGTGCAG | 8920 fluorescence intensity (a.u.)
24 | ACTTTCTTTGGTCTTACATTGCGCTGTGGATTGGTTGTGTCGGAGTCACCTAGTGCAG | 10100 fluorescence intensity (a.u.)
25 | TTGCTTCTTGTTGCTGTTGTTCTTGGTTGGATCTTTGATGCGGAGTCACCTAGTGCAG | 9320 fluorescence intensity (a.u.)
26 | TCCCATCATGTTCACAACTTGCTCCCTGCTTACCTGGTGACGGAGTCACCTAGTGCAG | 9010 fluorescence intensity (a.u.)
27 | CACTCCGTTTTCTATGCGTAGGAGATTTGTTCCCATATTCCGGAGTCACCTAGTGCAG | 8330 fluorescence intensity (a.u.)
28 | GCAGTAGTAGGTGGGTTGGTAGAGTAGAGGGGAGGATATGCGGAGTCACCTAGTGCAG | 8700 fluorescence intensity (a.u.)
29 | GTCCTGGAGAGCTACCGCCGTCGCGCCTGTCCCTGCCTCCCGGAGTCACCTAGTGCAG | 8190 fluorescence intensity (a.u.)
30 | ACTTGGTGGGCTCATTATTTTTTTTTTTCTGATTTTGCATCGGAGTCACCTAGTGCAG | 8100 fluorescence intensity (a.u.)
31 | ATATCATGTCTTGGTGCAAGATCTTTATTTGTAGGAATCACGGAGTCACCTAGTGCAG | 9380 fluorescence intensity (a.u.)
32 | CCGGTCCACCACATCCTCGGCCACACTTGACGCCTCCCTCCGGAGTCACCTAGTGCAG | 9480 fluorescence intensity (a.u.)
33 | GTGATGTGCTGCAACCTCGCCGCCAGCCGCGCCCTGTGCGCGGAGTCACCTAGTGCAG | 8560 fluorescence intensity (a.u.)
34 | CCTTAGCCCGACTGTCTTCAACTTCCTTCTGCAACAATTCCGGAGTCACCTAGTGCAG | 8070 fluorescence intensity (a.u.)
35 | GCCTGATGGTCGTTGCTCACTTGTTTTTCGAAGTGATCCTCGGAGTCACCTAGTGCAG | 8850 fluorescence intensity (a.u.)
36 | ATCTATGTCCTTATGCACTTACCTGAAATGATTGATGTCACGGAGTCACCTAGTGCAG | 12400 fluorescence intensity (a.u.)
37 | TCATCTTAGGCAGTTCCATCCTTTTGTGCTCATCTGAACTCGGAGTCACCTAGTGCAG | 9920 fluorescence intensity (a.u.)
38 | TAAACATAATAGCAGAAGACCTGGTAAGCATTCTTTTTTTCGGAGTCACCTAGTGCAG | 8440 fluorescence intensity (a.u.)
39 | GCTCGTCGTTATTCCGCGGCGCCATCTTCCTCTCTCCTCCCGGAGTCACCTAGTGCAG | 8860 fluorescence intensity (a.u.)
40 | CGGAATGATGGGGCTGTTTCTCCCTTGCGCGGCCATTGCTCGGAGTCACCTAGTGCAG | 9880 fluorescence intensity (a.u.)
41 | GTTTTCTGTCTCTTACGTGTACCTACCCATCGTTGAAACACGGAGTCACCTAGTGCAG | 8240 fluorescence intensity (a.u.)
42 | CGTCCGATCGGTCCGCATGTTTTTTTTGGCCGTTGATCAACGGAGTCACCTAGTGCAG | 11800 fluorescence intensity (a.u.)
